Test results: PubChem BioAssay AID328 (DTP/NCI, 2004)
The list does not hold the whole screen: it gathers tests that were run many times, whatever their T/C, doses with no T/C, and many T/C values between a quarter and a half above the control. Other doses and runs of a compound stand elsewhere. T/C gives the treated animals as a percentage of the vehicle group. Some entries give survivors of the animals treated and no T/C: the source holds a T/C of zero for them, seemingly a mark for toxic or unscored doses. Some survivor counts are full or nearly so, which does not show that the dose was tolerated: survival well below the control is almost never listed, so the zero probably covers shortened survival too. Counts of survivors are from the toxicity check (mostly the fifth day) where no day follows; animals may have died later. Schedule codes are those of the source, read here as Q, the interval in days (D) or hours (H), X, the number of doses. Some entries were tested several times; the results are listed from low to high. Counts like (3×) stand for listed records that agree. For survival time, this PubChem deposit counts one and a half times the control or more as active, and values a quarter to a half above the control carry no call in these data; other NCI protocols may use other cut-offs. Some T/C values are followed by the survivors on the day toxicity was checked, most often the fifth; without a count, all were alive then.

System: BDF1 mice, P388 leukemia ip, median survival T/C
Test: NCI In Vivo Anticancer Drug Screen. Data for tumor model P388 Leukemia (intraperitoneal) in B6D2F1 (BDF1) mice
Conditions: T/C endpoint: median survival time, higher T/C = longer survival
How it was run: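 Antitumour effect was judged in vivo: survival in drug-treated mice, normalised to that of vehicle-dosed controls, gives the reported T/C.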

With `COc1cccc2c1C(=O)c1c(O)c3c(c(O)c1C2=O)C[C@@](O)(C(=O)CO)C[C@@H]3OC1CC(N)C(O)C(C)O1` (some centres not stated) the survivor count (dose: 8.0 mg/kg/injection, schedule: Q04DX003 (ip), vehicle: water) was 7 of 8, 3 of 3, 8 of 8 (3×), the survivor count (dose: 8.0 mg/kg/injection, schedule: Q06HX004 (ip), vehicle: water) was 6 of 8 and the survivor count (dose: 8.4 mg/kg/injection, schedule: Q03HX008 (ip), vehicle: water) was 8 of 8. The T/C (dose: 8.4 mg/kg/injection, schedule: Q04DX003 (ip), vehicle: water, evaluated on day 7) was 166 and 236 % of control, the T/C (dose: 8.4 mg/kg/injection, schedule: Q04DX003 (ip), vehicle: water, evaluated on day 62) was 166 and 236 % of control and the T/C (dose: 10.0 mg/kg/injection, schedule: Q01DX001 (ip), vehicle: saline, evaluated on day 5) was 99, 104, 108, 141, 148, 154 (2×), 175, 178, 185, 187, 189, 202, 207 (2×), 233, 277, 424, 520, 530, 532, 554, 578, 584 % of control. The T/C (dose: 10.0 mg/kg/injection, schedule: Q01DX001 (ip), vehicle: saline, evaluated on day 60) was 99, 104, 108, 141, 148, 154, 175, 178, 185, 189, 202, 207 (2×), 221, 272, 277, 288, 293, 310, 424, 452, 482, 486, 515, 520, 527, 530, 531, 532, 533, 554, 565, 571 (2×), 578, 584 % of control, the survivor count (dose: 10.0 mg/kg/injection, schedule: Q03HX008 (ip), vehicle: saline) was 0 of 10 and the survivor count (dose: 10.0 mg/kg/injection, schedule: Q03HX008 (sc), vehicle: saline) was 0 of 10. For the same molecule, the survivor count (dose: 12.0 mg/kg/injection, schedule: Q03HX008 (ip), vehicle: saline) was 0 of 10, the survivor count (dose: 12.0 mg/kg/injection, schedule: Q03HX008 (sc), vehicle: saline) was 0 of 10 and the T/C (dose: 12.5 mg/kg/injection, schedule: Q01DX001 (ip), vehicle: saline, evaluated on day 5) was 181, 197, 222, 362, 530 % of control. For the same molecule, the T/C (dose: 12.5 mg/kg/injection, schedule: Q01DX001 (ip), vehicle: saline, evaluated on day 60) was 147 and 362 % of control, the survivor count (dose: 12.5 mg/kg/injection, schedule: Q01DX001 (sc), vehicle: saline) was 8 of 10 and the T/C (dose: 13.33 mg/kg/injection, schedule: Q04DX003 (ip), vehicle: saline) was 127 % of control. The T/C (dose: 14.0 mg/kg/injection, schedule: Q04DX003 (ip), vehicle: water, evaluated on day 7) was 128 % of control, the T/C (dose: 14.0 mg/kg/injection, schedule: Q04DX003 (ip), vehicle: water, evaluated on day 62) was 128 % of control and the T/C (dose: 15.0 mg/kg/injection, schedule: Q01DX001 (ip), vehicle: saline, evaluated on day 5) was 101, 117, 137, 164, 166, 172, 173, 185, 193, 194, 198, 213, 219, 221, 222, 225, 321, 519, 551, 553, 581, 586 % of control. For the same molecule, the T/C (dose: 15.0 mg/kg/injection, schedule: Q01DX001 (ip), vehicle: saline, evaluated on day 60) was 101, 117, 137, 166, 172, 173, 193, 194, 196, 198 (2×), 213, 219, 222, 225, 233, 266, 274, 284 [9 of 10 alive], 321, 416 [8 of 10 alive], 482, 520, 529, 530, 531, 533 [9 of 10 alive], 538, 548, 551, 553, 566, 571, 581, 586, 600 % of control, the T/C (dose: 15.0 mg/kg/injection, schedule: Q01DX001 (ip), vehicle: water, evaluated on day 7) was 133 % of control and the T/C (dose: 15.0 mg/kg/injection, schedule: Q01DX001 (ip), vehicle: water, evaluated on day 60) was 133 % of control. For the same molecule, the T/C (dose: 15.0 mg/kg/injection, schedule: Q01DX001 (iv), vehicle: saline) was 135 % of control, the survivor count (dose: 15.0 mg/kg/injection, schedule: Q01DX001 (sc), vehicle: saline) was 10 of 10 and the T/C (dose: 16.0 mg/kg/injection, schedule: Q01DX001 (ip), vehicle: saline, evaluated on day 1) was 498 % of control. For the same molecule, the T/C (dose: 16.0 mg/kg/injection, schedule: Q01DX001 (ip), vehicle: saline, evaluated on day 5) was 254, 281, 304, 486 % of control, the T/C (dose: 16.0 mg/kg/injection, schedule: Q01DX001 (ip), vehicle: saline, evaluated on day 6) was 498 % of control and the T/C (dose: 16.0 mg/kg/injection, schedule: Q01DX001 (ip), vehicle: saline, evaluated on day 8) was 254 % of control. The T/C (dose: 16.0 mg/kg/injection, schedule: Q01DX001 (ip), vehicle: saline, evaluated on day 11) was 160 % of control, the T/C (dose: 16.0 mg/kg/injection, schedule: Q01DX001 (ip), vehicle: saline, evaluated on day 90) was 304 % of control and the T/C (dose: 16.0 mg/kg/injection, schedule: Q04DX003 (ip), vehicle: water) was 100 [5 of 6 alive], 103 [2 of 3 alive], 110 [5 of 6 alive], 113, 119, 125, 129 % of control. The T/C (dose: 17.5 mg/kg/injection, schedule: Q01DX001 (ip), vehicle: saline, evaluated on day 5) was 125, 168, 240 % of control, the T/C (dose: 17.5 mg/kg/injection, schedule: Q01DX001 (ip), vehicle: saline, evaluated on day 60) was 168 % of control and the survivor count (dose: 17.5 mg/kg/injection, schedule: Q01DX001 (ip), vehicle: saline) was 9 of 9. For the same molecule, the survivor count (dose: 17.5 mg/kg/injection, schedule: Q01DX001 (sc), vehicle: saline) was 7 of 10, the survivor count (dose: 20.0 mg/kg/injection, schedule: Q01DX001 (ip), vehicle: water) was 6 of 7 and the survivor count (dose: 20.0 mg/kg/injection, schedule: Q01DX001 (sc), vehicle: saline) was 6 of 10. The T/C (dose: 22.5 mg/kg/injection, schedule: Q01DX001 (ip), vehicle: saline, evaluated on day 5) was 57, 116, 130 (2×), 163, 174, 183, 197, 201 (2×), 213, 217, 234, 235, 435, 581, 584 % of control, the T/C (dose: 22.5 mg/kg/injection, schedule: Q01DX001 (ip), vehicle: saline, evaluated on day 60) was 116, 130 (2×), 163, 183, 197, 201 (2×), 213, 217, 221, 234, 235, 435, 581, 588 % of control and the survivor count (dose: 22.5 mg/kg/injection, schedule: Q01DX001 (ip), vehicle: saline) was 9 of 10. For the same molecule, the T/C (dose: 32.0 mg/kg/injection, schedule: Q01DX001 (ip), vehicle: saline, evaluated on day 1) was 69 % of control, the T/C (dose: 32.0 mg/kg/injection, schedule: Q01DX001 (ip), vehicle: saline, evaluated on day 5) was 64 and 77 % of control and the T/C (dose: 32.0 mg/kg/injection, schedule: Q01DX001 (ip), vehicle: saline, evaluated on day 6) was 69 % of control. For the same molecule, the survivor count (dose: 32.0 mg/kg/injection, schedule: Q01DX001 (ip), vehicle: saline) was 10 of 10, the T/C (dose: 64.0 mg/kg/injection, schedule: Q01DX001 (ip), vehicle: saline, evaluated on day 1) was 43 % of control and the T/C (dose: 64.0 mg/kg/injection, schedule: Q01DX001 (ip), vehicle: saline, evaluated on day 5) was 49 and 57 % of control. For the same molecule, the T/C (dose: 64.0 mg/kg/injection, schedule: Q01DX001 (ip), vehicle: saline, evaluated on day 6) was 43 % of control, the survivor count (dose: 64.0 mg/kg/injection, schedule: Q01DX001 (ip), vehicle: saline) was 7 of 10 and the T/C (dose: 128.0 mg/kg/injection, schedule: Q01DX001 (ip), vehicle: saline, evaluated on day 1) was 35 % of control. The T/C (dose: 128.0 mg/kg/injection, schedule: Q01DX001 (ip), vehicle: saline, evaluated on day 5) was 43 % of control, the T/C (dose: 128.0 mg/kg/injection, schedule: Q01DX001 (ip), vehicle: saline, evaluated on day 6) was 35 % of control and the survivor count (dose: 128.0 mg/kg/injection, schedule: Q01DX001 (ip), vehicle: saline) was 0 of 10. The T/C (dose: 6670.0 micrograms/kg/injection, schedule: Q04DX003 (ip), vehicle: water) was 125 % of control.
